Measured values taken from patent publication US9770045B2, “Preservation of animal feed and hydrolysis of polysaccharides using amino acids as salts or with acids” (priority 2015, dated 2017).
Structures can show the parent of a compound that is named as a salt.

Settings: percent weight lost, 0 to 72 hours

SMILES	Decomposition
NCC(=O)O [6M Glycine—HCl, glycine hydrochloride]	5.3%
Cl [6M HCl, hydrochloric acid]	45.1%
